Results: article PMC8854732
Results are given in words; binding and its absence hold for the method and conditions named. In cells and extracts the contact can be indirect. Some results given as binding are weak or reduced against the parent protein; the word gives no strength. For some assays here: Where a sequence is shown, tags or fusion partners need not be part of it.

The chains behind the UniProt entries cited, without tags or fusion partners. Where a name states a change or a piece, a line headed by the entry shows the natural chain unless it says otherwise.
UniProt Q9Y294: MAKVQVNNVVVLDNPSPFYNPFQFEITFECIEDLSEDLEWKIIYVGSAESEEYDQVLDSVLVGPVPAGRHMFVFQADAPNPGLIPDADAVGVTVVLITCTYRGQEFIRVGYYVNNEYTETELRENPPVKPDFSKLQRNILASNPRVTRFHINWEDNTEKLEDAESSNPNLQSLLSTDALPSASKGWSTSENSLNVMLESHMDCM
UniProt Q9NVP2: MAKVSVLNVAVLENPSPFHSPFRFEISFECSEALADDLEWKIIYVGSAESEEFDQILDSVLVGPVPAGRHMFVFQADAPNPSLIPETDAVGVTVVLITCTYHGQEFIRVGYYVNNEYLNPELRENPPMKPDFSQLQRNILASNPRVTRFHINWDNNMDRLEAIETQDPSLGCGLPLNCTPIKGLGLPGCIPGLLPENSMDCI
UniProt P54198: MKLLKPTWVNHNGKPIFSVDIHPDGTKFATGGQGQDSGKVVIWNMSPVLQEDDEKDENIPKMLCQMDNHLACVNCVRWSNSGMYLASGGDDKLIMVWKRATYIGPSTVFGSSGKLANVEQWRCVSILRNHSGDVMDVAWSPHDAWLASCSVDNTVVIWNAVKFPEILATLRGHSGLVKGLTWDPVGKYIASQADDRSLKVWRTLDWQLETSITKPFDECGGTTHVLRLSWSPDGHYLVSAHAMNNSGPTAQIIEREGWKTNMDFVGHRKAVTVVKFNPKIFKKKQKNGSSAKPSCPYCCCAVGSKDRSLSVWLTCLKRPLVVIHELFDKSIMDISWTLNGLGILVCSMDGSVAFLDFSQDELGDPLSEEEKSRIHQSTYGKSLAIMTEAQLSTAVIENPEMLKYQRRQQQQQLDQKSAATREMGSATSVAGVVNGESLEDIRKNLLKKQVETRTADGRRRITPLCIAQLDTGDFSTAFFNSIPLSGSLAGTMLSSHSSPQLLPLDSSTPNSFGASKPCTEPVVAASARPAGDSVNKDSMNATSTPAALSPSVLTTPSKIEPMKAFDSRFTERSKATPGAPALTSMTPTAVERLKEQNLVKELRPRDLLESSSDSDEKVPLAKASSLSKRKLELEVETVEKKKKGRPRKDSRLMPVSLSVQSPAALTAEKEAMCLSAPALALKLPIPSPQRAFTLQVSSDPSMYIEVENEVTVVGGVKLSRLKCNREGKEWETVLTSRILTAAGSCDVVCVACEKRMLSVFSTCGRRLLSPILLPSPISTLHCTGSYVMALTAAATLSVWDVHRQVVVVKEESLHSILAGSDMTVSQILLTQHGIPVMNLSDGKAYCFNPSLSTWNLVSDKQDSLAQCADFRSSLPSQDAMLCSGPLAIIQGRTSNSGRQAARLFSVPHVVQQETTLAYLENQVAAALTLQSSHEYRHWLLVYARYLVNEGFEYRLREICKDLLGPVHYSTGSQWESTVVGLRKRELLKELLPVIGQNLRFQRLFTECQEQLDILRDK

What was measured:
[1] = molecular target: FLAG-tagged RIF1 (UniProt Q5UIP0); assay: co-IP; anti-FLAG M2 agarose IP from extracts of transfected HEK293 cells, NTEN lysis buffer (150 mM NaCl, 0.5% NP-40), 4 °C 4 h, elution with 3× Flag peptide, immunoblot; with/without bleomycin (20 μg/mL, 3 h); soluble and chromatin fractions
[2] = molecular target: T1, MBP–RIF1_B (RIF1 aa1180–1270) (UniProt Q5UIP0); assay: pull-down; MBP pulldown: pDEST26–MBP–RIF1_B or pDEST26–MBP transfected into HEK293 suspension cells, lysate in NTEN buffer on amylose resin 4 °C 4 h, elution with maltose
T1 sequence: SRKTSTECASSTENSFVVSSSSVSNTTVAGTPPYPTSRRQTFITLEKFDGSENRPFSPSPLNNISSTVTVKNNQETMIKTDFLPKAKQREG

[3] = molecular target: FLAG-tagged ASF1a (UniProt Q9Y294); assay: co-IP; anti-FLAG M2 agarose IP from extracts of transfected HEK293 cells, NTEN lysis buffer (150 mM NaCl, 0.5% NP-40), 4 °C 4 h, elution with 3× Flag peptide, immunoblot; with/without bleomycin (20 μg/mL, 3 h); soluble and chromatin fractions
[4] = molecular target: FLAG-tagged ASF1b (UniProt Q9NVP2); assay: as above
[5] = molecular target: ASF1a V94R (UniProt Q9Y294); assay: as above

Substance	binding [1]	binding [3]	also measured
ASF1a (endogenous, HEK293) (from UniProt Q9Y294 1-204)	binds		binding [2]: binds
ASF1b (endogenous, HEK293) (from UniProt Q9NVP2 1-202)	binds		
GFP-RIF1 wild-type (from UniProt Q5UIP0 1-2472)		binds	
HIRA (endogenous, HEK293) (from UniProt P54198 1-1017)		binds	
RIF1 (endogenous, HEK293) (from UniProt Q5UIP0 1-2472)		binds	binding [4]: binds; binding [5]: binds
